The results in this text go back to US20230357292A1, “MULTI-COORDINATE GOLD-PHOSPHINE COMPOUNDS AND METHOD OF USE” (University of Kentucky Research Foundation, priority 2020, published 2023).

In data set [1] the test system is MDA-MB-231 cells. To be noted: 1 μM for 12 h.
The test system of data set [2] is MDA-MB-231 cells. To be noted: 1 μM, 12 h.

Consider `[Cl-].[Cl][Au-]1([c]2ccccc2-c2ccccn2)[P+](c2ccccc2)(c2ccccc2)c2ccccc2[P+]1(c1ccccc1)c1ccccc1` [AuPhos-89, (2-phenylpyridine)[1,2-Bis(diphenylphosphino)benzene]gold(III) Dichloride], for which, in the data set with MDA-MB-231 cells [1], the “differentially expressed genes (DEG)” value is listed as 922, the downregulated genes amounted to 94 and the upregulated genes is reported as 83. Besides, the downregulated proteins with MDA-MB-231 cells [2] (ratio less than 1/1.5) amounted to 88. Further, the upregulated proteins with MDA-MB-231 cells [2] (ratio over 1.5) was found to be 75. The differentially expressed proteins with MDA-MB-231 cells [2] (ratio over 1.5 or less than 1/1.5) was found to be 163.
